Source: paper PMC11939259, “Antiparasitic and Antifungal Activities of Cetyl-Maritima, a New N-Cetyl-Modified Maritima Derivative” (Antibiotics, 2025)

Test system: M. mycetomatis fungal strain MM55
Test: M. mycetomatis MM55 in vitro susceptibility, MTS metabolic activity
Format: cell-based, Madurella mycetomatis
Experimental: The M. mycetomatis MM55 isolate obtained from a patient and identified and maintained in the Erasmus Medical Centre, Rotterdam, The Netherlands, was applied for the investigation of the in vitro susceptibility of the test compounds as reported previously. In short, the fungal isolate was cultured on Sabouraud agar for 2 weeks at 37 °C, after which the mycelium was transferred in colorless RPMI 1640 medium supplemented with L-glutamine (0.3 g/L; Capricorn-Scientific, Ebsdorfergrund, Germany), morpholinepropanesulfonic acid (MOPS, 20 mM, Sigma, St. Louis, MO, USA), and chloramphenicol (100 mg/L, Oxoid, Basingstroke, UK). […] Pharmacia Biotech, Uppsala, Sweden). Then, 100 μL of the suspension was added to each well of a 96-wells plate (Costar 3799, Fisher Scientific, Breda, The Netherlands) that contained 1 μL of each compound sample. […] The following formula was used: […] The negative control (NC) is medium only and 0% metabolic activity was noted.

CCCCCCCCCCCCCCCC[n+]1ccccc1 [CPBr, Cetylpyridinium bromide]
Metabolic activity upon treatment at 25 μM (25 μM, ± SD): 7.9 ± 1.5% | Metabolic activity upon treatment at 100 μM (100 μM, ± SD): 4.0 ± 0.8% | IC50 (Madurella mycetomatis): 16 µM
